# Some of the results follow. Single values are uncertain, as repeats are few or missing.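 The apoptosis fraction was the count of cleaved-PARP antibody-stained nuclei relative to all DNA-stained nuclei, imaged in 1,536-well plates. Screening doses were set so most cells survived, and baseline and induced cleaved-PARP levels vary greatly across cell lines.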
# Legend:
# Experiment in all cases: cleaved PARP positive nuclei fraction relative to DMSO control; melanoma cells; higher = more apoptosis
# Conditions in all cases: library dose: low library concentration; 72 h
# COLO792 = test system: COLO792
# COLO800 = test system: COLO800
# G361 = test system: G361
# IPC-298 = test system: IPC-298
# IST-MEL1 = test system: IST-MEL1
# LB2518-MEL = test system: LB2518-MEL
# LOXIMVI = test system: LOXIMVI
# MEL-HO = test system: MEL-HO
# MZ2-MEL = test system: MZ2-MEL
# MeWo = test system: MeWo
# RPMI7951 = test system: RPMI7951
# RVH-421 = test system: RVH-421
# SkMel28 = test system: SkMel28
# SkMel2 = test system: SkMel2
# SkMel30 = test system: SkMel30
# SkMel5 = test system: SkMel5
# UACC257 = test system: UACC257
# UACC62 = test system: UACC62
# COLO829 = test system: COLO829
Structure (SMILES),cleaved PARP positive nuclei fraction (COLO792) [%],cleaved PARP positive nuclei fraction (COLO800) [%],cleaved PARP positive nuclei fraction (G361) [%],cleaved PARP positive nuclei fraction (IPC-298) [%],cleaved PARP positive nuclei fraction (IST-MEL1) [%],cleaved PARP positive nuclei fraction (LB2518-MEL) [%],cleaved PARP positive nuclei fraction (LOXIMVI) [%],cleaved PARP positive nuclei fraction (MEL-HO) [%],cleaved PARP positive nuclei fraction (MZ2-MEL) [%],cleaved PARP positive nuclei fraction (MeWo) [%],cleaved PARP positive nuclei fraction (RPMI7951) [%],cleaved PARP positive nuclei fraction (RVH-421) [%],cleaved PARP positive nuclei fraction (SkMel28) [%],cleaved PARP positive nuclei fraction (SkMel2) [%],cleaved PARP positive nuclei fraction (SkMel30) [%],cleaved PARP positive nuclei fraction (SkMel5) [%],cleaved PARP positive nuclei fraction (UACC257) [%],cleaved PARP positive nuclei fraction (UACC62) [%],cleaved PARP positive nuclei fraction (COLO829) [%]
"COc1cc([C@@H]2c3cc4c(cc3[C@@H](O[C@@H]3O[C@@H]5CO[C@@H](C)O[C@H]5[C@H](O)[C@H]3O)[C@H]3COC(=O)[C@H]23)OCO4)cc(OC)c1O [etoposide] + COc1cc(Nc2ncc(F)c(Nc3ccc4c(n3)NC(=O)C(C)(C)O4)n2)cc(OC)c1OC [Tamatinib] (first compound 0.02 µM, partner dose 0.4 µM)",105,240,115,115,151,103,81.7,159,233,128,110,195,74.4,92.1,67.5,222,150,286,
"O=C(Nc1cc(C(F)(F)F)cc(C(F)(F)F)c1)c1cc(Cl)ccc1O + O=C(Nc1ccccc1)c1cc([N+](=O)[O-])ccc1Cl [GW9662] (first compound 0.016 µM, partner dose 2 µM)",98.6,15.7,63.1,30.2,68.6,88.1,124,,141,353,62.3,123,220,73.4,44.4,78.7,312,98.2,156
"Cc1ccc(Nc2nccc(N(C)c3ccc4c(C)n(C)nc4c3)n2)cc1S(N)(=O)=O [Pazopanib] + C=CCn1c(=O)c2cnc(Nc3ccc(N4CCN(C)CC4)cc3)nc2n1-c1cccc(C(C)(C)O)n1 [MK1775] (first compound 0.4 µM, partner dose 0.02 µM)",85.1,40.7,149,121,271,,182,130,,98.7,106,42.5,213,59,92.6,128,66.1,182,152
"N#CC[C@H](C1CCCC1)n1cc(-c2ncnc3[nH]ccc23)cn1 [ruxolitinib] + c1cc(-c2cnn3cc(-c4ccc(OCCN5CCCCC5)cc4)cnc23)ccn1 [Dorsomorphin] (first compound 1 µM, partner dose 0.4 µM)",150,56.4,63.3,48,69.7,,245,,,78.6,252,112,155,,81.5,85.1,73.9,142,33
"COc1cc([C@@H]2c3cc4c(cc3[C@@H](O[C@@H]3O[C@@H]5CO[C@@H](C)O[C@H]5[C@H](O)[C@H]3O)[C@H]3COC(=O)[C@H]23)OCO4)cc(OC)c1O [etoposide] + O=C(CCCCCCC(=O)Nc1ccccc1)NO [vorinostat] (first compound 0.02 µM, partner dose 0.08 µM)",85.8,162,176,88.9,40.5,89.8,,112,161,90.3,33.4,99.2,82.4,97.6,145,44.9,84.1,120,132
"COc1cc([C@@H]2c3cc4c(cc3[C@@H](O[C@@H]3O[C@@H]5CO[C@@H](C)O[C@H]5[C@H](O)[C@H]3O)[C@H]3COC(=O)[C@H]23)OCO4)cc(OC)c1O [etoposide] + Oc1nc(-c2ccc(C(F)(F)F)cc2)nc2c1CSCC2 [XAV939] (first compound 0.02 µM, partner dose 2 µM)",254,124,79.4,100,24.5,77.2,37.1,,56.6,53.5,37.5,73.1,51.6,,104,159,51,69.1,78.8
"Cc1cc(Nc2cc(N3CCN(C)CC3)nc(Sc3ccc(NC(=O)C4CC4)cc3)n2)n[nH]1 [Tozasertib] + Cc1cc(N2CCOCC2)cc2[nH]c(-c3c(NC[C@@H](O)c4cccc(Cl)c4)cc[nH]c3=O)nc12 [BMS536924] (first compound 0.006 µM, partner dose 0.2 µM)",167,166,112,135,50.2,,57.9,117,,55,113,56.1,22.5,,63.9,145,31.8,74.9,104
"O=C(Nc1cc(C(F)(F)F)cc(C(F)(F)F)c1)c1cc(Cl)ccc1O + C=CCn1c(=O)c2cnc(Nc3ccc(N4CCN(C)CC4)cc3)nc2n1-c1cccc(C(C)(C)O)n1 [MK1775] (first compound 0.016 µM, partner dose 0.02 µM)",97.7,93.1,116,278,220,,291,112,,110,43.3,184,66.9,157,135,297,88.8,73.3,42.2

# Reference: the supplement of paper PMC4604168 (melanoma cell lines)
